The star is where a group is joined. Myristoyl = CCCCCCCCCCCCCC(=O)*
Tested on: obese diabetic mice (db/db)
Assay: Blood glucose response of obese diabetic (db/db) mice to peptide treatment
Type: in vivo
Conditions: mean, n=3
Protocol: ACD-004 was tested for its effect on hyperglycemia in obese diabetic mice (db/db).
Protocol: Mice (n=3) were kept on normal, unlimited diet. Prior to peptide treatment, baseline measurements of blood glucose and body weight were taken every ˜3 weeks through a period of 2.5 months (see time points (−1)-(−4) in Table 3 below). Injections of the peptide (intraperitoneally, ˜35 mg/kg) started on time point 0 and continued on time points 1 and 2, twice a day. Blood glucose and body weight were measured at the indicated days.
The results, summarized in Table 3, are expressed as mean % change in blood glucose compared to the first baseline measurement (time point (−4)).
Mice (n=16) were kept on normal, unlimited diet. Injections of the peptide (i.p., 20 mg/kg, n=9) or vehicle (i.p., n=7) started at 3-4 m of age (time point ‘0’) and continued for 3 days, once a day. In a similar experiment the peptide […] were injected to mice with severe diabetes for 7 days.

Substance: Myristoyl-GRNFQKGQVTR-NH2 [ACD-004, myristoylated, C-terminally amidated peptide derived from h-HO-1]
- Body Wt. (ACD-004 i.p. ~35 mg/kg twice a day at time points 0-2, time point 3, age 18.3 wks): 54 g
- Body Wt. (ACD-004 i.p. ~35 mg/kg twice a day from time point 0, time point 1, age 17.9 wks): 55.3 g
- Body Wt. (ACD-004 i.p. ~35 mg/kg twice a day from time point 0, time point 2, age 18.1 wks): 54 g
